Results taken from article PMC10979580.

Amino acid sequences for entries named in this document (tags omitted). Residues count along the entry.
UniProt P01903, residues 26-254: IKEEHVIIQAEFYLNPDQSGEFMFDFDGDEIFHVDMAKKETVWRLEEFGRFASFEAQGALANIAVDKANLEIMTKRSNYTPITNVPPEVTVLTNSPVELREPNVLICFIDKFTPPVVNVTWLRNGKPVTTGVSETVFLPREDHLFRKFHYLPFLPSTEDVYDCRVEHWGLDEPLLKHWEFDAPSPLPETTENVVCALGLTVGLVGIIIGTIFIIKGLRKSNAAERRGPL

Target: T1, GFP-tagged VISTA (V-domain Ig suppressor of T cell activation) (UniProt Q9H7M9)
T1 sequence: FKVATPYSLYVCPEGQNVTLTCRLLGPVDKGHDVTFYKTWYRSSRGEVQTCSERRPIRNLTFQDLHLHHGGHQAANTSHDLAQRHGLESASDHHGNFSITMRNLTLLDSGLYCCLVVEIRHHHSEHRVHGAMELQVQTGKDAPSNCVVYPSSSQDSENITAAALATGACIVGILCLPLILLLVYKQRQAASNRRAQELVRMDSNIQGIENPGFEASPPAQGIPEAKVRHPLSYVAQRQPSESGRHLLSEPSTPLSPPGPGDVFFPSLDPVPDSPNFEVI
Experiment: affinity purification with mass spectrometry; lysate of HL60 cells expressing VISTA-GFP (150 mM NaCl, 50 mM Tris pH 7.2, 1% NP-40, 0.1% SDS), pre-cleared, GFP-beads 1 h at 4 °C, washed three times; mass spectrometry; proteins found exclusively with VISTA-GFP

| binding | Substance |
| --- | --- |
| binds | HLA-DRA (from UniProt P01903 26-254) |
| binds | HLA-DRB (human (endogenous in HL60)) |
| binds | HLA-B (from UniProt P01889 25-362) |
| binds | HLA-DQA (human (endogenous in HL60)) |

These are yes or no findings as the source states them, for the method shown. In cells and extracts the contact can be indirect. These calls come from enrichment with a bait or labelling near it, and not all partners need be listed. Sequences can lack the tags named with a protein.
